No constants are given. Whether binding was seen depends on the method and setting. Binding seen in cells or lysates may run through a third protein. Some results given as binding are weak or reduced against the parent protein; the word gives no strength.
Target: centriolar coiled-coil protein 110 (CP110), endogenous (human (endogenous in RPE-1)) (UniProt O43303)
Assay: co-IP; endogenous proteins; wild-type RPE-1 cells in normal serum medium, lysed in TBSN buffer; anti-BICD2 or anti-CP110 antibody at 4 °C overnight, then Protein A/G Sepharose beads 4 h; immunoblotting

Chains of the proteins cited; added tags and fusions are not shown.
UniProt O43303: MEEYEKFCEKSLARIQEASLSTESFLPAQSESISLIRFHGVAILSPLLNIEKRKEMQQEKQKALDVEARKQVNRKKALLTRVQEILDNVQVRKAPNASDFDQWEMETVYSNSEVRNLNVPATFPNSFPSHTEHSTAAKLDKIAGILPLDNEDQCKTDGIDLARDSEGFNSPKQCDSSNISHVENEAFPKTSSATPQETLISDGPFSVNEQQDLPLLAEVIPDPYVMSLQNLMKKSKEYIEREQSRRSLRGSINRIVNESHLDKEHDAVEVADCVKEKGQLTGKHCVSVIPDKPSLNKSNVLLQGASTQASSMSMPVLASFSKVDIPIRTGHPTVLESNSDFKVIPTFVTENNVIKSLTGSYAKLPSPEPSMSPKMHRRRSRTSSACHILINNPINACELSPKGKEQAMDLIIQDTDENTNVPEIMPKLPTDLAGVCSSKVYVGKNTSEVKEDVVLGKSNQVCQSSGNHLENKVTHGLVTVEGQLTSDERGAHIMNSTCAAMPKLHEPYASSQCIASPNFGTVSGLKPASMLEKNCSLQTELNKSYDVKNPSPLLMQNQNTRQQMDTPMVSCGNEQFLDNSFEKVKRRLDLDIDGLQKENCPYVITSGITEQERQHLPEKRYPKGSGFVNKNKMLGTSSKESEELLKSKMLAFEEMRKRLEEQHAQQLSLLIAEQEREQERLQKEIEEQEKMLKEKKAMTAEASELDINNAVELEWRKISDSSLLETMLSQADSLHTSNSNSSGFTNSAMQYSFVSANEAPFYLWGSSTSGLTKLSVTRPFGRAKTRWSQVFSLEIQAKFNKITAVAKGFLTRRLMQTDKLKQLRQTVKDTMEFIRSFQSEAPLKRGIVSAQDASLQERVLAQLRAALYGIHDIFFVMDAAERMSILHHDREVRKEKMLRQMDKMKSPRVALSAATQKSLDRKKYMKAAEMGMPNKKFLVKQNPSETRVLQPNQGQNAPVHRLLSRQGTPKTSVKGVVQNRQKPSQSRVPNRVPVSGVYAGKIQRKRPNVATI
UniProt Q8TD16: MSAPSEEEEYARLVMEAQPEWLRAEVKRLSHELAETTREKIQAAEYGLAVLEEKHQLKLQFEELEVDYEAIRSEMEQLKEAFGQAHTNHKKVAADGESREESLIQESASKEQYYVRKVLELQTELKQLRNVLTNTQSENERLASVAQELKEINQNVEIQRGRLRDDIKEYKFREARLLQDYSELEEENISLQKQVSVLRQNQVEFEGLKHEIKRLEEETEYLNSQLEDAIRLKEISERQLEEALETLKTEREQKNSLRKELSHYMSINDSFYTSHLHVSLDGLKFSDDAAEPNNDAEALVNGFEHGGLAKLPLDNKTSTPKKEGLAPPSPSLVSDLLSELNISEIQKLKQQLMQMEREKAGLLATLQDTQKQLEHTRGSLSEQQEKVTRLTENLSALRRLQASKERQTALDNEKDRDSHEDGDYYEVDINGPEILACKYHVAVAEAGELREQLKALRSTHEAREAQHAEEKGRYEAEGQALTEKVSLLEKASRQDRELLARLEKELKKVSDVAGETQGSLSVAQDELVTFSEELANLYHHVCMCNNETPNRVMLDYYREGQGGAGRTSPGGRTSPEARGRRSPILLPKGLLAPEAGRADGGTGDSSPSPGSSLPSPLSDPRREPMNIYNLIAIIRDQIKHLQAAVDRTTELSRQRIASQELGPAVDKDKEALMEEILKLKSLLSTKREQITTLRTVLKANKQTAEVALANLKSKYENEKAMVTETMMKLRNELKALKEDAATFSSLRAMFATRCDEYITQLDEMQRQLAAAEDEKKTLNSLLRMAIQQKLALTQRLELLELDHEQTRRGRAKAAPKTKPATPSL

bicaudal D cargo adaptor 2 (BICD2), endogenous (from UniProt Q8TD16 1-824)
binding: binds

From PMC12635215
